Here are results for 59 molecules from PubChem BioAssay AID2685 (National Center for Advancing Translational Sciences (NCATS), 2010).

The structures appear in SMILES notation. The list shows a part of the results. The main result of the screen is listed elsewhere. These columns were measured beside it and carry no call. The list favours compounds with an active or inconclusive main result. Potencies come from curve fits of mixed quality, noted in brackets.

This test is described as follows: qHTS Assay for Lipid Storage Modulators in Drosophila S3 Cells.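 On cell number change: cells counted by Cell Tracker Red CMTPX staining in the red channel.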 As to conditions: BODIPY lipid droplet fluorescence, 18-24 h; for cell number change: measured here: cell count max response, cells fed with added oleic acid. In short, it runs like this: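 Drosophila S3 cells got compounds at several concentrations plus oleic acid (400 uM solution). Laser-scanning cytometry with 488 nm excitation read lipid droplets at 500-530 nm and cells at 575-640 nm. Percent activity was relative to 20 uM Triacsin C.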
On the technique in general: Quantitative high-throughput screening tests each substance at several concentrations.

[1] abbreviates: measured here: cell number channel AC50, cells fed with added oleic acid.
[2] abbreviates: measured here: lipid fluorescence (Fed channel) AC50, cells fed with added oleic acid.

Regarding `Oc1ccc(Cl)cc1-c1cc(C(F)(F)C(F)F)nc(-c2ccccc2)n1`, the cell number change was -21.6%.

In general, AC50 refers to the concentration giving half of the maximal activity seen. Consider `CCOC(=O)C1C(=O)NC(N2CCCCC2)=NC1C(C)C` (stereo not given), for which the cell number change was -13.1%. The AC50 under setting [1] is 6.51 µM [falling, single point]. Under setting [2], the AC50 is 6.51 µM [falling, single point].

As for `CCC(C)[C@H](NC(=O)[C@H](Cc1ccccc1)n1c(=O)[nH]c2ccccc2c1=O)C(=O)N1CCC[C@@H]1C(=O)O` (stereo not given in full), the AC50 under setting [2] is 29.1 µM [rising, single point].

Regarding `O=C(C(Cc1ccccc1)n1cccc1)N1CCN(c2ncccn2)CC1` (stereo not given), the cell number change was found to be 74.7%. Also, the half-maximal activity concentration (AC50) under setting [1] is 16.4 µM [rising, partial curve].

On to `Cc1ccccc1NC(=S)c1nc2ccccc2[nH]1`, for which the AC50 under setting [2] was 0.651 µM [falling, single point].

Take `CCOC(=O)NN=C1CCC(c2ccccc2)CC1` (stereo not given): the AC50 under setting [2] is 0.291 µM [rising, full curve].

With `O=C(c1ccco1)N1N=C(c2ccc(Cl)cc2)CC1c1ccco1` (stereo not given), the cell number change worked out at 2.29%.

For the molecule `Cc1ccc2c(c1)C(=O)C(=O)N2CC1COc2ccccc2O1` (stereo not given), the cell number change was -31.9%. Moreover, the AC50 under setting [2] is 0.517 µM [rising, partial curve].

In the case of `Cc1cc(C)n(C/C=C/Cn2nc(C)cc2C)n1`, the cell number change was found to be 7.44%. Besides, the AC50 under setting [2] was 0.58 µM [rising, single point].

Consider `COc1ccc(C(=O)C[N+]2(C)CCOCC2)cc1`, for which the cell number change was -32.3%. The AC50 under setting [1] was 0.058 µM [falling, full curve, poor fit]. Under setting [2], the AC50 was 2.31 µM [falling, full curve, poor fit].

`COc1cc(C)ccc1S(=O)(=O)N1CCN(C23CC4CC(CC(C4)C2)C3)CC1`: the cell number change is -31%. Further, the AC50 under setting [1] is 25.9 µM [falling, single point]. In addition, the AC50 under setting [2] is 20.6 µM [falling, partial curve].

Consider `COc1ccc(Cl)cc1NC(=O)c1cc(-c2ccco2)on1`, for which the cell number change turned out to be 65.1%. Besides, under setting [1], the AC50 is 23.1 µM [rising, partial curve, poor fit].

Turning to `CN(CC(=O)NCc1ccco1)S(=O)(=O)c1ccc(F)cc1`, the AC50 under setting [2] was 29.1 µM [rising, single point].

Consider `COCCCN1C(=O)CC(C(=O)OC)=C1C`, for which the cell number change was -37.1%. The AC50 under setting [1] was 14.6 µM [falling, partial curve, poor fit]. For the same molecule, under setting [2], the AC50 was 4.11 µM [falling, partial curve, poor fit].

Consider `COc1cc(NC(=O)Cc2ccccc2)ccc1NC(=O)c1ccco1`, for which the cell number change is -3.95%. In addition, under setting [2], the AC50 was 3.66 µM [rising, single point].

Consider `Cc1ccc(C)c(CSc2nnc(C)c(=O)n2N)c1`, for which the cell number change is 20.1%. Further, the AC50 under setting [1] was 0.082 µM [falling, full curve, poor fit]. The half-maximal activity concentration (AC50) under setting [2] is 32.6 µM [rising, single point].

For `CC1(C)CC(=O)C(C=NCCN2CCNC2=O)=C(O)C1`, the cell number change is -15.9%. Further, under setting [2], the AC50 was 3.66 µM [falling, single point].

Consider `Cc1ccc(NC(=O)CN(C)S(=O)(=O)c2ccc(Br)s2)cc1F`, for which the cell number change was determined as 3.05%. Also, the AC50 under setting [2] was 16.4 µM [rising, single point].

Regarding `COC1=Cc2c(ccc3ccc(=O)oc23)OC1(C)C`, the cell number change was -38.1%. Further, under setting [1], the half-maximal activity concentration (AC50) was 29.1 µM [falling, single point]. Further, the AC50 under setting [2] was 0.517 µM [falling, full curve].

Turning to `C=CCn1c(NC)cc(=O)n(C)c1=O`, the AC50 under setting [2] was 25.9 µM [rising, single point].

As for `Cc1cc(C)cc(N(CC(=O)NC2CCCC2)C(=O)CNC(=O)c2ccco2)c1`, the cell number change is -23.8%.

Consider `CCOc1ccc(NC(=O)C(CC(=O)O)Cc2ccc(C)cc2)cc1` (stereo not given), for which the cell number change was 7.37%.

For the molecule `COc1ccc(P(=O)(COc2ccc([N+](=O)[O-])cc2)c2ccc(OC)cc2)cc1`, the cell number change was determined as 42.5%. In addition, the AC50 under setting [1] is 29.1 µM [rising, single point]. Further, the AC50 under setting [2] is 29.1 µM [rising, partial curve].

For the molecule `CCOC(=O)c1sc(NC(=O)CSc2n[nH]c(-c3ccncc3)n2)c(C#N)c1C`, the cell number change amounted to 15.9%. In addition, the AC50 under setting [1] was 0.731 µM [rising, full curve]. Besides, the half-maximal activity concentration (AC50) under setting [2] is 29.1 µM [rising, single point].

Take `COc1ccccc1NC(=O)/C(=C\c1cccs1)NC(=O)c1ccco1`: the cell number change was -52.9%. The concentration at half-maximal activity (AC50) under setting [1] was 8.2 µM [falling, partial curve, poor fit]. Also, the AC50 under setting [2] is 6.51 µM [falling, partial curve].

For the molecule `COc1ccc(NC(=O)CSc2nc3c(sc4ccccc43)c(=O)n2CCCN2CCCC2)cc1`, the cell number change is 49.8%. Also, the AC50 under setting [1] is 16.4 µM [rising, single point]. The AC50 under setting [2] was 4.61 µM [rising, single point].

Take `CCc1cccc(C)c1NC(=O)CN(C)C1=NS(=O)(=O)c2ccccc21`: the cell number change is -1.3%. In addition, the half-maximal activity concentration (AC50) under setting [2] is 0.461 µM [rising, single point].

For `CCCC(c1nnnn1C(C)(C)CC)N(CCCO)Cc1cc2cc(C)cc(C)c2[nH]c1=O` (stereo not given), the cell number change was 5.38%. In addition, under setting [1], the AC50 is 0.146 µM [rising, full curve, poor fit].

On to `O=C(NC1CCCCC1)c1cc(Cl)ccc1[N+](=O)[O-]`, for which the cell number change is -32.5%. Further, under setting [1], the concentration at half-maximal activity (AC50) was 29.1 µM [falling, single point]. Moreover, the AC50 under setting [2] was 0.0411 µM [falling, full curve, poor fit].

Take `O=C(NC1CC1)C1CCN(C2CCN(C(=O)c3ccc(C(F)(F)F)cc3)CC2)CC1`: the AC50 under setting [2] is 0.58 µM [falling, single point].

Consider `Nc1cc(-c2ccc(Cl)cc2)nn1S(=O)(=O)c1cccc2nsnc12`, for which the cell number change was 11.1%. Moreover, the AC50 under setting [2] is 0.0146 µM [rising, full curve, poor fit].

Turning to `O=C(CNCCC1=CCCCC1)Nc1ccccc1N1CCCCC1`, the cell number change is -233%. Further, the concentration at half-maximal activity (AC50) under setting [1] is 29.1 µM [falling, single point]. For the same molecule, under setting [2], the AC50 is 29.1 µM [falling, single point].

As for `COc1ccc(-n2cc(CNCCc3cscn3)c(-c3ccccc3Cl)n2)cc1`, the AC50 under setting [2] was 0.461 µM [falling, single point].

Take `C=CCOc1ccc(/C=N/Nc2ccccn2)cc1OC`: the cell number change was 1.1%. In addition, the half-maximal activity concentration (AC50) under setting [1] was 6.51 µM [rising, single point].

For `CC(C)Cc1nc2ccccc2[nH]1`, the cell number change was determined as 14.5%.

Take `C=CCN1C(=O)CN=C1Nc1ccc(OC)cc1OC`: the cell number change is -5.42%.

On to `CCC(C)(C)NC(=O)C(c1ccccc1Cl)N(Cc1cccnc1)C(=O)CCC(=O)Nc1cc(C)on1` (stereo not given), for which the cell number change worked out at 11.2%. Under setting [2], the AC50 is 0.461 µM [rising, partial curve].

Turning to `Cc1c(N/C=C(\Cl)C(=O)C(F)(F)F)c(=O)n(-c2ccccc2)n1C`, the cell number change is 10.5%.

Take `O=C(CN1C(=O)C2CC=CCC2C1=O)NC1CCCCC1` (stereo not given): the cell number change was 5.77%.

Regarding `COc1ccc(CNC(=O)COC(=O)CNC(=O)c2sc3ccccc3c2Cl)cc1OC`, the cell number change was determined as 4.67%. Under setting [1], the AC50 is 4.61 µM [rising, single point]. For the same molecule, the AC50 under setting [2] was 6.51 µM [rising, single point].

As to `COc1ccccc1NC(=S)NC(=O)c1c(-c2ccccc2Cl)noc1C`, the cell number change turned out to be 21.4%. The half-maximal activity concentration (AC50) under setting [2] was 2.06 µM [rising, full curve, poor fit].

Turning to `O=C(N/C=C/c1ccc(Cl)cc1)NCc1ccc(Cl)cc1`, the cell number change is -19.3%. Also, the AC50 under setting [2] was 1.64 µM [rising, partial curve, poor fit].

Turning to `Cc1cccc(N2CCN(C(=O)Cc3ccc(Br)cc3)CC2)c1C`, the cell number change came out at 46%. Under setting [1], the AC50 was 25.9 µM [rising, single point].

Consider `Nc1nc(NC(=O)c2cccc(S(=O)(=O)N3CCCCCC3)c2)nc(-c2ccccc2)n1`, for which the cell number change was -6.63%. The AC50 under setting [2] is 0.92 µM [rising, single point].

Regarding `CC(=O)OCCCNc1cc(Sc2nc3ccccc3s2)c2nonc2c1[N+](=O)[O-]`, the cell number change was 18.1%. Also, the AC50 under setting [2] was 0.92 µM [falling, full curve, poor fit].

On to `O=C(CN(c1ccccc1)S(=O)(=O)c1ccc(Cl)cc1)Nc1ccccc1C(=O)N1CCCC1`, for which the cell number change is 34.6%. Under setting [1], the AC50 is 16.4 µM [rising, single point]. Further, the AC50 under setting [2] was 0.82 µM [falling, single point].

Consider `COCCN1CC(C(=O)NCCc2nc(C)c(C)s2)CCC1=O` (stereo not given), for which the cell number change is -1.42%. The AC50 under setting [1] is 0.058 µM [rising, full curve, poor fit].

On to `O=C(COC(=O)c1cccc(Cl)c1)NC1CCS(=O)(=O)C1` (stereo not given), for which the cell number change is -8.54%.

Regarding `CCCn1c2ccccc2c2cnn(CC(=O)NCCCN3CCN(c4ccccc4)CC3)c(=O)c21`, the cell number change was -2.09%. Under setting [2], the AC50 was 6.51 µM [rising, single point].

`O=C(CC1OC(=O)c2ccccc21)Nc1cc(S(=O)(=O)N2CCOCC2)ccc1OCC(F)(F)F` (stereo not given): the cell number change turned out to be 29.7%. Further, the concentration at half-maximal activity (AC50) under setting [1] is 1.3 µM [rising, full curve, poor fit].

Regarding `Cc1cc(C)c(C)c(S(=O)(=O)N2CCN(Cc3nc4ccccc4[nH]3)CC2)c1C`, under setting [2], the AC50 was 29.1 µM [rising, partial curve, poor fit].

For the molecule `CCOC(=O)CNC(=O)c1sc(NC(=O)c2ccccc2F)nc1C`, the cell number change was -5.25%. Also, under setting [2], the AC50 was 0.291 µM [rising, full curve, poor fit].

As to `CCOc1ccccc1N1CCN(C(=O)CC(C)C)CC1`, the cell number change was 75.6%. In addition, the AC50 under setting [1] was 18.4 µM [rising, single point]. Further, the AC50 under setting [2] is 16.4 µM [rising, single point].

Consider `CC(=O)N1N=C(c2cccc(Cl)c2)OC1c1ccc(C(C)C)cc1` (stereo not given), for which the cell number change was determined as 1.07%. The AC50 under setting [2] is 29.1 µM [falling, single point].

Consider `CCn1c(/C=C2\C(=O)N(C(C)C)c3ccccc32)nc2ccccc2c1=O`, for which the cell number change is -32.2%. Also, the AC50 under setting [1] is 14.6 µM [falling, single point].

With `CN(C)c1ccc(CN(C(=O)c2cc3ccccc3oc2=O)C2CCS(=O)(=O)C2)cc1` (stereo not given), the cell number change was 12%.

Turning to `O=C(NC1CCCCC1)C(c1ccc2ncccc2c1)N(Cc1ccccc1)C(=O)c1cccs1` (stereo not given), the cell number change stood at 65.7%. Also, the AC50 under setting [1] is 23.1 µM [rising, single point].

On to `C=CCn1c(NC(=O)c2ccc(C)cc2)nc2ccccc21`, for which the cell number change is -13.1%. Also, the concentration at half-maximal activity (AC50) under setting [2] was 0.517 µM [rising, single point].

Consider `CC(=O)N1N=C(c2ccccc2)CC1c1cccs1` (stereo not given), for which the cell number change stood at 55%. Also, the half-maximal activity concentration (AC50) under setting [1] is 11.6 µM [rising, partial curve, poor fit].
